According to patent publication US20170224836A1 (Novartis, published 2017):
Results are given in words; binding and its absence hold for the method and conditions named. Some binding calls cover weakened binding; strength is not graded here.

Biological target: T1, hCDH6aa54-615 APPavi (human, UniProt P55285 54-615)
T1 sequence: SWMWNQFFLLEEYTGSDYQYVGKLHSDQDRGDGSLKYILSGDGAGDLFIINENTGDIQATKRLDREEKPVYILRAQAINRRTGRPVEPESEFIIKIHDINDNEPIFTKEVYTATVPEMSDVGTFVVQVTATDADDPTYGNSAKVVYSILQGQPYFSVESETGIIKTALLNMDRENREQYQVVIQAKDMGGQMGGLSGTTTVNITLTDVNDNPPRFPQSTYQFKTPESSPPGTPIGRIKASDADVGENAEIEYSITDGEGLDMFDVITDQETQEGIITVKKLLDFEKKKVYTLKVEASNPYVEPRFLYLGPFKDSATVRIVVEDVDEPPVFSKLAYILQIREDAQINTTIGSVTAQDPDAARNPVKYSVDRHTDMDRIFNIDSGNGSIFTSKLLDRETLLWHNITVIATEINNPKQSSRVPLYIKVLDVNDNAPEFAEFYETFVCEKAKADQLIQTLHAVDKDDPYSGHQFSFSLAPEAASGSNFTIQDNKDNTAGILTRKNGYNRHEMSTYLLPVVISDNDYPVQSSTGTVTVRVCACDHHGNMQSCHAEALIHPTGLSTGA
Test: SPR pairwise binning

- binding: binds
B1: NOV1132 (antibody, human IgG1, lambda, V domains shown)
VH: QVQLQQSGPGLVKPSQTLSLTCAISGDSVSSQSAGWNWIRQSPSRGLEWLGRIYYRSKWYNDYAVSVKSRITINPDTSKNQFSLQLNSVTPEDTAVYYCAREKYTVSFYDFFDYWGQGTLVTVSS
VL: SYELTQPLSVSVALGQTARITCSGDNIGSMTAHWYQQKPGQAPVLVIYDKNERPSGIPERFSGSNSGNTATLTISRAQAGDEADYYCQSWDDSYTSVVFGGGTKLTVLG
